# Counter-ions that a name gives are not always drawn. For at least one compound, name, drawing or mass did not settle the structure.
# Target: calcium channels
# Test: displacement of tritium-labeled nitrendipine from membrane preparations containing isolated calcium channels
# Format: binding
# Procedure: Their action on the calcium channels can be shown using the biochemical test model of the displacement of tritium-labeled nitrendipine. In this test, membrane preparations which contain isolated calcium channels are loaded with the labeled substance. After incubation with the test substance, the radioactivity released and the radioactivity remaining on the membrane are determined. The IC50 values shown by the compounds of the formula I, according to the invention, in this model are from 10^-6 molar to 10^-10 molar.
compound,measurement,value
"COc1cc(CCN2CCN(C/C=C\COc3ccccc3[C@@]3(C(C)C)Sc4ccccc4N(C)C3=O)CC2)cc(OC)c1OC [Example 3, (R)-2-isopropyl-4-methyl-2-[2-[4-[4-(3,4,5-trimethoxyphenethyl)-1-piperazinyl]-2-cis-buten-1-yloxy]phenyl]-2H-1,4-benzothiazin-3(4H)-one dihydrochloride]",IC50,0.45 nM
